Assay results reported in PubChem BioAssay AID2685 (National Center for Advancing Translational Sciences (NCATS), 2010).
The list shows a part of the results. These are further read-outs of the screen, such as a control signal, another cell line or another target. No call is given for them. Most of these compounds were active or inconclusive in the main read-out, so they are no random draw. The note in brackets gives the kind of curve behind each potency; many fits are weak.

Assay: qHTS Assay for Lipid Storage Modulators in Drosophila S3 Cells;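 for cell number change: cells counted by Cell Tracker Red CMTPX staining in the red channel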
Conditions: BODIPY lipid droplet fluorescence, 18-24 h; for cell number change: measured here: cell count max response, cells fed with added oleic acid
Summary of the method: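 Drosophila S3 cells got compounds at several concentrations plus oleic acid (400 uM solution). Laser-scanning cytometry with 488 nm excitation read lipid droplets at 500-530 nm and cells at 575-640 nm. Percent activity was relative to 20 uM Triacsin C.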

[1] = measured here: lipid fluorescence (Fed channel) AC50, cells fed with added oleic acid
[2] = measured here: cell number channel AC50, cells fed with added oleic acid

| SMILES | cell number change [%] | AC50 [1] | AC50 [2] |
| --- | --- | --- | --- |
| CC(C)(C)NCC1(CO)SC(N)=NC1=O (configuration not stated) | 5.96 | 0.82 µM [rising, full curve, poor fit] |  |
| CCc1nc(N2CCC3(CC2)OCCO3)c2nnn(Cc3ccccc3Cl)c2n1 | -11.7 | 29.1 µM [falling, single point] |  |
| COc1ccc(C2(C(=O)NCC3CCCO3)CCOCC2)cc1 (configuration not stated) | -24.9 | 8.2 µM [falling, single point] | 0.146 µM [falling, full curve, poor fit] |
| COc1ccc(S(=O)(=O)N2CCOCC2)c2ccccc12 | -9.71 | 32.6 µM [rising, single point] |  |
| O=C(COC(=O)c1ccccc1)NCc1ccco1 | 19.1 | 0.0164 µM [falling, full curve, poor fit] |  |
| CC(C)COC(=S)Nc1ccccc1 |  | 6.51 µM [rising, single point] | 0.326 µM [falling, partial curve, poor fit] |
| Cc1ccccc1-n1c(SC2CCOC2=O)nnc1-c1ccncc1 (configuration not stated) | -17.1 | 3.26 µM [falling, partial curve] |  |
| CCOC(=O)c1c(C)c(-c2ccccc2)n(CC(=O)N2CCN(C)CC2)c1C | 24.3 |  | 6.51 µM [rising, partial curve, poor fit] |
| Cc1cc(NC(=NC2CC2)c2ccccc2F)n(-c2ccccc2)n1 |  | 0.13 µM [rising, full curve, poor fit] | 0.206 µM [rising, full curve, poor fit] |
| Cc1ccc(C)c(C(=O)CN2Cc3ccccc3C2=O)c1 | 23.9 |  |  |
| C/C(=C\c1ccccc1)C(=O)N1CCN(c2cccc(C(F)(F)F)c2)CC1 | 30.4 | 20.6 µM [rising, single point] | 23.1 µM [rising, partial curve] |
| CCCn1cnc2scc(-c3ccc(OC)cc3)c2c1=O | 9.09 |  |  |
| Cc1c(C)n(C)c2ccc(C(=O)NCCCN3CCCC3)cc12 | 3.63 | 20.6 µM [rising, partial curve, poor fit] |  |
| CCCCCCCCNC(CO)(CO)CO | -50.4 | 0.731 µM [falling, full curve] | 29.1 µM [falling, single point] |
| CCN(C(=O)Cn1c(=O)n(Cc2ccccc2)c(=O)c2ccccc21)c1cccc(C)c1 |  |  | 2.06 µM [rising, single point] |
| Cc1ccccc1-c1nc(-c2ccc(NC(=O)c3cccs3)cc2)no1 | -9.48 |  |  |
| O=C(Nc1ccccc1)N1CCCC1 | -9.97 |  |  |
| CNc1nc(SC)nc(N(C)C#N)n1 | 3.87 | 6.51 µM [falling, partial curve] | 0.92 µM [falling, single point] |
| CC1(C)C(=O)N(c2ccccc2Cl)C(=O)c2ccccc21 | 20.4 | 0.82 µM [falling, partial curve] |  |
| CC(C)C(=O)Nc1nnc(SCc2cccc(F)c2)s1 | 10.8 | 2.06 µM [rising, partial curve] | 6.51 µM [rising, single point] |

| SMILES | cell number change [%] | AC50 [1] | AC50 [2] |
| --- | --- | --- | --- |
| C=CCn1c(SCC(=O)c2ccc(O)c(O)c2)nnc1-c1ccc(C)cc1 | -30.2 |  | 29.1 µM [falling, single point] |
| CC1=NN(C(=O)COc2ccccc2C)C(O)(c2ccc(Cl)cc2)C1 (configuration not stated) | -31.9 | 3.66 µM [falling, single point] | 7.31 µM [falling, partial curve] |
| Cc1[nH]c2ccccc2c1C(=O)C(C)Sc1nnc(C2CC2)o1 (configuration not stated) | -4.28 | 10.3 µM [falling, single point] |  |
| CC(=O)c1ccc(NC(=O)C(C)OC(=O)c2ccc3c(c2)nc(C)n3-c2ccccc2)cc1 (configuration not stated) | 32.9 |  | 6.51 µM [rising, partial curve] |
| CCOC(=O)C1=C(C)N=c2s/c(=C/c3ccco3)c(=O)n2C1c1cccc(OC)c1 (configuration not stated) | -17.7 | 2.06 µM [falling, single point] |  |
| O=C(/C=C/c1ccco1)Nc1ccc(C(=O)N2CCOCC2)cc1 | -56.9 | 25.9 µM [falling, single point] | 32.6 µM [falling, single point] |
| CN(C)c1ccc(/C=N/NC(=O)C(O)(c2ccccc2)c2ccccc2)o1 | -142 | 29.1 µM [falling, partial curve] | 18.4 µM [falling, partial curve] |
| CC(C)COC(=O)c1cc(-c2ccc(/C=N/n3cnnc3)o2)ccc1Cl | 52.6 |  | 2.31 µM [rising, full curve] |
| CCOC(=O)C1(CCOC)CCN(C(C)CCc2ccc(OC)cc2)CC1 (configuration not stated) | 0.955 | 6.51 µM [falling, partial curve] |  |
| COc1ccccc1C(=O)Nc1ccc(S(=O)(=O)N2CCC(C)CC2)cc1 | -9.72 |  |  |
| Fc1ccc(-c2csc(N3CCC(c4ccccc4)C3)n2)cc1 (configuration not stated) |  | 6.51 µM [falling, single point] |  |
| CCOC(=O)CNC(=O)c1c2c(nc3ccccc13)CCCC2 | 33.5 |  | 32.6 µM [rising, single point] |
| Cc1ccc(NC(=O)CC2S/C(=N/c3nccs3)N(C)C2=O)c(C)c1 (configuration not stated) | 3.73 |  |  |
| CCCCOc1ccc(CC(=O)NCC(=O)O)cc1 | -6.67 |  |  |
| CCN(CC)S(=O)(=O)c1ccc(-c2nnc(SC)o2)cc1 | 0.762 | 6.51 µM [falling, single point] |  |
| COc1ccc(OCC(=O)Nc2cc(C)c(Cl)cc2OC)c([N+](=O)[O-])c1 | -21.1 | 0.731 µM [rising, full curve, poor fit] |  |
| Fc1cccc(CSc2nc3ncc(Cl)cc3[nH]2)c1 | 16.1 | 0.116 µM [rising, full curve, poor fit] | 0.326 µM [rising, full curve, poor fit] |
| Cc1cc(C)n(-c2nc(-c3ccc(Cl)cc3)cs2)n1 | 8.2 | 1.46 µM [rising, partial curve, poor fit] | 0.231 µM [rising, full curve] |
| O=C(O)CSc1nnc2c(n1)[nH]c1ccccc12 | -0.136 | 1.46 µM [falling, single point] |  |
| COc1ccc(-n2nc3c(N4CCC(C(=O)NCCc5ccccc5C)CC4)nnc(C)c3c2C)cc1 | 9.73 | 11.6 µM [rising, partial curve] |  |

| SMILES | cell number change [%] | AC50 [1] | AC50 [2] |
| --- | --- | --- | --- |
| COc1cc(C(=O)NC2CCCc3c2cnn3-c2ccccc2F)cc(OC)c1OC (configuration not stated) |  | 23.1 µM [falling, partial curve] |  |
| Cc1ccc(-c2cc(C(=O)N3N=C(C(F)F)CC3(O)C(F)F)c3ccccc3n2)cc1C (configuration not stated) | -65.4 | 16.4 µM [falling, partial curve] | 18.4 µM [falling, partial curve] |
| O=C(O)CCNc1nc(-c2ccccc2)nc2ccccc12 | 34.8 | 29.1 µM [falling, single point] | 2.31 µM [rising, single point] |
| CN(C)C(CNC(=O)c1ccc(C(=O)c2ccccc2)cc1)c1ccccc1 (configuration not stated) | 18.9 | 8.2 µM [rising, partial curve] |  |
| CCOc1ccc(N2CC(C(=O)Nc3ccc(S(=O)(=O)N4CCOCC4)cc3)CC2=O)cc1 (configuration not stated) | 41.5 | 6.51 µM [rising, single point] | 29.1 µM [rising, single point] |
| COc1ccc(CN(Cc2ccccn2)S(=O)(=O)c2ccc(-n3cnnn3)c(OC)c2)cc1 | 47.5 | 11.6 µM [rising, partial curve] | 29.1 µM [rising, single point] |
| CC1Sc2ccc(S(=O)(=O)CCC(=O)NC(C)c3ccccc3)cc2NC1=O (configuration not stated) | -3.36 | 2.31 µM [rising, partial curve] |  |
| COC(=O)c1[nH]c2cccc(OC)c2c1NC(=O)CCN1CCC(C)CC1 | -20.8 | 0.411 µM [rising, full curve, poor fit] |  |
| COc1ccc(COCC(O)CN2CCOCC2)cc1OC (configuration not stated) | 32.3 |  |  |
| CN(CCCNC(=O)CCC(=O)N1CCOc2ccccc21)Cc1ccccc1 | 9.22 |  |  |
| CC(C)(C)c1ccc(NC(=O)COC(=O)c2ccc3ncsc3c2)cc1 | 0.987 | 6.51 µM [falling, single point] |  |
| COc1cccc(CNC(=O)CN(c2cc(C)cc(C)c2)S(=O)(=O)c2c(C)noc2C)c1 | 15.4 | 1.64 µM [rising, partial curve, poor fit] |  |
| CCN1CCN(c2ccc(S(=O)(=O)N3CCCCC3)cc2NC(=O)CC(NC(C)=O)c2ccccc2)CC1 (configuration not stated) | 2.94 |  |  |
| Cc1cc(C(=O)O)ccc1-c1ccc(/C=N/n2cnnc2)o1 | 21.3 | 13 µM [rising, partial curve] |  |
| COc1ccc(/C(O)=C2/C(=O)C(=O)N(c3ccccn3)C2c2ccc(OC)cc2)cc1 (configuration not stated) | -16.7 | 29.1 µM [falling, single point] |  |
| COC(=O)CCc1c(C)c(C(=O)c2ccc(F)cc2)c2ccccn12 |  | 0.103 µM [rising, partial curve, poor fit] | 0.116 µM [rising, full curve, poor fit] |
| CC(=O)N1CCc2cc(S(=O)(=O)NC(CC(C)C)C(=O)N3CCCC3)ccc21 (configuration not stated) | -7.63 |  |  |
| CCOC(=O)C(C(=O)OCC)C(C)(C)/C(C)=N\Nc1ccc([N+](=O)[O-])cc1[N+](=O)[O-] | -44.4 | 18.4 µM [falling, partial curve] | 32.6 µM [falling, single point] |

Look-ups from the results shown.
In cell number change [%], COC(=O)c1[nH]c2cccc(OC)c2c1NC(=O)CCN1CCC(C)CC1 reads -20.8
In cell number change [%], Cc1ccc(-c2cc(C(=O)N3N=C(C(F)F)CC3(O)C(F)F)c3ccccc3n2)cc1C (configuration not stated) reads -65.4
In cell number change [%], CCOC(=O)C(C(=O)OCC)C(C)(C)/C(C)=N\Nc1ccc([N+](=O)[O-])cc1[N+](=O)[O-] reads -44.4
In AC50 [1], COC(=O)CCc1c(C)c(C(=O)c2ccc(F)cc2)c2ccccn12 reads 0.103 µM [rising, partial curve, poor fit]
